Data from the supplement of paper PMC8728848.
The other results are listed elsewhere or left out.

Columns and labels:
Assay in all cases: glycan array binding signal (z-score within array); higher = stronger binding
Conditions in all cases: glycan notation: IUPAC condensed, linker removed
[1] = biological target: Fuc(a1-2)[GalNAc(a1-3)]Gal(b1-3)GalNAc(b1-3)Gal(a1-4)Gal(b1-4)Glc
Outline: (§1)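 Glycan array data were curated from 3228 arrays in the Consortium for Functional Glycomics database and kept only where the protein sequence was available. Glycan names were converted to IUPAC-condensed notation, and columns mapping to the same glycan were averaged. The binding signal is a within-array Z-score, averaged across arrays of the same protein sequence at different concentrations or buffers and across linkers. Negative Z-scores can be read as non-binding.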

[2] = biological target: Fuc(a1-2)[GalNAc(a1-3)]Gal(b1-3)GlcNAc
Outline: as §1

[3] = biological target: Fuc(a1-2)[GalNAc(a1-3)]Gal(b1-3)GlcNAc(b1-2)Man(a1-3)[Fuc(a1-2)[GalNAc(a1-3)]Gal(b1-3)GlcNAc(b1-2)Man(a1-6)]Man(b1-4)GlcNAc(b1-4)GlcNAc
Outline: as §1

[4] = biological target: Fuc(a1-2)[GalNAc(a1-3)]Gal(b1-3)GlcNAc(b1-2)Man(a1-3)[Fuc(a1-2)[GalNAc(a1-3)]Gal(b1-3)GlcNAc(b1-2)Man(a1-6)]Man(b1-4)GlcNAc(b1-4)[Fuc(a1-6)]GlcNAc
Outline: as §1

[5] = biological target: Fuc(a1-2)[GalNAc(a1-3)]Gal(b1-3)GlcNAc(b1-3)GalNAc
Outline: as §1

[6] = biological target: Fuc(a1-2)[GalNAc(a1-3)]Gal(b1-3)GlcNAc(b1-6)GalNAc
Outline: as §1

[7] = biological target: Fuc(a1-2)[GalNAc(a1-3)]Gal(b1-4)Glc
Outline: as §1

[8] = biological target: Fuc(a1-2)[GalNAc(a1-3)]Gal(b1-4)GlcNAc
Outline: as §1

[9] = biological target: Fuc(a1-2)[GalNAc(a1-3)]Gal(b1-4)GlcNAc(b1-2)Man
Outline: as §1

[10] = biological target: Fuc(a1-2)[GalNAc(a1-3)]Gal(b1-4)GlcNAc(b1-2)Man(a1-3)[Fuc(a1-2)[GalNAc(a1-3)]Gal(b1-4)GlcNAc(b1-2)Man(a1-6)]Man(b1-4)GlcNAc(b1-4)GlcNAc
Outline: as §1

[11] = biological target: Fuc(a1-2)[GalNAc(a1-3)]Gal(b1-4)GlcNAc(b1-2)Man(a1-3)[Fuc(a1-2)[GalNAc(a1-3)]Gal(b1-4)GlcNAc(b1-2)Man(a1-6)]Man(b1-4)GlcNAc(b1-4)[Fuc(a1-6)]GlcNAc
Outline: as §1

[12] = biological target: Fuc(a1-2)[GalNAc(a1-3)]Gal(b1-4)GlcNAc(b1-2)Man(a1-3)[GalNAc(a1-3)[Fuc(a1-2)]Gal(b1-4)GlcNAc(b1-2)Man(a1-6)]Man(b1-4)GlcNAc(b1-4)GlcNAc
Outline: as §1

[13] = biological target: Fuc(a1-2)[GalNAc(a1-3)]Gal(b1-4)GlcNAc(b1-3)Gal(b1-4)GlcNAc
Outline: as §1

[14] = biological target: Fuc(a1-2)[GalNAc(a1-3)]Gal(b1-4)GlcNAc(b1-3)Gal(b1-4)GlcNAc(b1-3)Gal(b1-4)GlcNAc
Outline: as §1

[15] = biological target: Fuc(a1-2)[GalNAc(a1-3)]Gal(b1-4)GlcNAc(b1-3)GalNAc
Outline: as §1

[16] = biological target: Fuc(a1-2)[GalNAc(a1-3)]Gal(b1-4)GlcNAc(b1-3)[Fuc(a1-2)[GalNAc(a1-3)]Gal(b1-4)GlcNAc(b1-6)]GalNAc
Outline: as §1

[17] = biological target: Fuc(a1-2)[GalNAc(a1-3)]Gal(b1-4)GlcNAc(b1-6)GalNAc
Outline: as §1

[18] = biological target: Fuc(a1-2)[GalNAc(a1-3)]Gal(b1-4)[Fuc(a1-3)]GlcNAc
Outline: as §1

[19] = biological target: Fuc(a1-2)[GalNAc(a1-3)]Gal(b1-4)[Fuc(a1-3)]GlcNAc(b1-3)GalNAc
Outline: as §1

[20] = biological target: Fuc(a1-2)[GalNAc(a1-4)]Gal(b1-4)GlcNAc
Outline: as §1

[21] = biological target: Fuc(a1-2)[GalNAc(b1-3)]Gal
Outline: as §1

[22] = biological target: Fuc(a1-3)GlcNAc
Outline: as §1

[23] = biological target: Fuc(a1-3)[Gal(b1-4)]Glc6S
Outline: as §1

[24] = biological target: Fuc(a1-3)[Gal(b1-4)]GlcNAc
Outline: as §1

[25] = biological target: Fuc(a1-3)[Gal(b1-4)]GlcNAc(b1-2)Man
Outline: as §1

[26] = biological target: Fuc(a1-3)[Gal(b1-4)]GlcNAc(b1-2)Man(a1-3)[Fuc(a1-3)[Gal(b1-4)]GlcNAc(b1-2)Man(a1-6)]Man(b1-4)GlcNAc(b1-4)GlcNAc
Outline: as §1

[27] = biological target: Fuc(a1-3)[Gal(b1-4)]GlcNAc(b1-2)Man(a1-3)[Fuc(a1-3)[Gal(b1-4)]GlcNAc(b1-2)Man(a1-6)]Man(b1-4)GlcNAc(b1-4)[Fuc(a1-6)]GlcNAc
Outline: as §1

[28] = biological target: Fuc(a1-3)[Gal(b1-4)]GlcNAc(b1-2)Man(a1-6)[Gal(b1-4)GlcNAc(b1-2)Man(a1-3)]Man(b1-4)GlcNAc(b1-4)GlcNAc
Outline: as §1

[29] = biological target: Fuc(a1-3)[Gal(b1-4)]GlcNAc(b1-3)Gal(b1-3)[Fuc(a1-4)]GlcNAc
Outline: as §1

[30] = biological target: Fuc(a1-3)[Gal(b1-4)]GlcNAc(b1-3)Gal(b1-4)[Fuc(a1-3)]GlcNAc
Outline: as §1

[31] = biological target: Fuc(a1-3)[Gal(b1-4)]GlcNAc(b1-3)Gal(b1-4)[Fuc(a1-3)]GlcNAc(b1-3)Gal(b1-4)[Fuc(a1-3)]GlcNAc
Outline: as §1

[32] = biological target: Fuc(a1-3)[Gal(b1-4)]GlcNAc(b1-3)GalNAc
Outline: as §1

[33] = biological target: Fuc(a1-3)[Gal(b1-4)]GlcNAc(b1-4)Gal(b1-4)[Fuc(a1-3)]GlcNAc
Outline: as §1

[34] = biological target: Fuc(a1-3)[Gal(b1-4)]GlcNAc(b1-4)Gal(b1-4)[Fuc(a1-3)]GlcNAc(b1-4)Gal(b1-4)[Fuc(a1-3)]GlcNAc
Outline: as §1

[35] = biological target: Fuc(a1-3)[Gal(b1-4)]GlcNAc(b1-6)GalNAc
Outline: as §1

[36] = biological target: Fuc(a1-3)[Gal(b1-4)]GlcNAc(b1-6)[Gal(b1-3)GlcNAc(b1-3)]Gal(b1-4)Glc
Outline: as §1

[37] = biological target: Fuc(a1-3)[Gal(b1-4)]GlcNAc6S
Outline: as §1

[38] = biological target: Fuc(a1-3)[Gal3S(b1-4)]Glc
Outline: as §1

[39] = biological target: Fuc(a1-3)[Gal3S(b1-4)]Glc6S
Outline: as §1

[40] = biological target: Fuc(a1-3)[Gal3S(b1-4)]GlcNAc
Outline: as §1

[41] = biological target: Fuc(a1-3)[Gal3S(b1-4)]GlcNAc6S
Outline: as §1

[42] = biological target: Fuc(a1-3)[GalNAc(b1-4)]GlcNAc
Outline: as §1

[43] = biological target: Fuc(a1-3)[GalNAc(b1-4)]GlcNAc6S
Outline: as §1

[44] = biological target: Fuc(a1-3)[Neu5Ac(a2-3)]Gal(b1-4)GlcNAc(b1-3)GalNAc
Outline: as §1

[45] = biological target: Fuc(a1-4)GlcNAc
Outline: as §1

B1: BabA (Helicobacter pylori), O52269_HELPY (protein)
chain: AEDDGFYMSAGYQIGEAAQMVKNTKGIQELSDNYENLSNLLTRYSTLNTLIKLSADPSAVNAARENLGASAKNLIGDTKNSPAYQAVLLAINAAVGFWNVVGYVTQCGGNANGQKSTSSTTIFNNEPGYRSTSITCSLNGHMPGYYGPMSIENFKKLNEAYQILQTALKNGLPALKENNGTVNVTYSYTCSGEGNDNCSLQTTGVTNQNNGTKTETQTIDGKSVTTTISSKVVDSQ
- glycan array binding signal (z-score) [1]: 0.063
- glycan array binding signal (z-score) [2]: -0.233
- glycan array binding signal (z-score) [3]: -0.767
- glycan array binding signal (z-score) [4]: -0.219
- glycan array binding signal (z-score) [5]: 0.354
- glycan array binding signal (z-score) [6]: -0.709
- glycan array binding signal (z-score) [7]: -0.039
- glycan array binding signal (z-score) [8]: -0.47
- glycan array binding signal (z-score) [9]: 0.626
- glycan array binding signal (z-score) [10]: -0.155
- glycan array binding signal (z-score) [11]: 0.59
- glycan array binding signal (z-score) [12]: -0.893
- glycan array binding signal (z-score) [13]: -0.624
- glycan array binding signal (z-score) [14]: -0.054
- glycan array binding signal (z-score) [15]: -0.6
- glycan array binding signal (z-score) [16]: -0.637
- glycan array binding signal (z-score) [17]: -0.618
- glycan array binding signal (z-score) [18]: 0.309
- glycan array binding signal (z-score) [19]: -0.164
- glycan array binding signal (z-score) [20]: -0.727
- glycan array binding signal (z-score) [21]: -0.45
- glycan array binding signal (z-score) [22]: -0.059
- glycan array binding signal (z-score) [23]: 0.843
- glycan array binding signal (z-score) [24]: -0.421
- glycan array binding signal (z-score) [25]: -0.146
- glycan array binding signal (z-score) [26]: -0.812
- glycan array binding signal (z-score) [27]: 0.099
- glycan array binding signal (z-score) [28]: -1.52
- glycan array binding signal (z-score) [29]: 0.248
- glycan array binding signal (z-score) [30]: 0.417
- glycan array binding signal (z-score) [31]: -0.282
- glycan array binding signal (z-score) [32]: -0.319
- glycan array binding signal (z-score) [33]: 0.227
- glycan array binding signal (z-score) [34]: -1.36
- glycan array binding signal (z-score) [35]: 0.063
- glycan array binding signal (z-score) [36]: 0.017
- glycan array binding signal (z-score) [37]: 1.91
- glycan array binding signal (z-score) [38]: -0.137
- glycan array binding signal (z-score) [39]: -0.386
- glycan array binding signal (z-score) [40]: -0.018
- glycan array binding signal (z-score) [41]: 0.395
- glycan array binding signal (z-score) [42]: 0.578
- glycan array binding signal (z-score) [43]: -0.664
- glycan array binding signal (z-score) [44]: -0.984
- glycan array binding signal (z-score) [45]: -0.389
